These are yes or no findings as the source states them, for the method shown. Binding can be weak; no strength is given. Tags and fused reporters may be left off the sequences shown. For part of these data: In cells and extracts the contact can be indirect. Each block holds one molecule with its values, some of them ahead of it.
Tests used:
[1] = biological target: T1, SlGASA1 fused to the GAL4 DNA-binding domain (tomato (Solanum lycopersicum)) (UniProt P27057); experiment: two-hybrid; SlGASA1 on the GAL4 DNA-binding domain (pGBKT7) as bait, ripening regulators on the GAL4 activation domain (pGADT7) as preys; yeast AH109; growth on SD-Leu-Trp-His-Ade
T1 sequence: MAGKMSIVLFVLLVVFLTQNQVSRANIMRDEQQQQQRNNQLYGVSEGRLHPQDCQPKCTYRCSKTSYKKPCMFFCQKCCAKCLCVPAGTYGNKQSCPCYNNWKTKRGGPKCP

[2] = biological target: FUL1-FLAG (tomato (Solanum lycopersicum)); experiment: co-IP; co-expression in N. benthamiana leaves by Agrobacterium infiltration; total proteins incubated with anti-FLAG M2 magnetic beads 12-16 h at 4°C; immunoblot with anti-HA and anti-FLAG
[3] = biological target: GST-FUL1 (tomato (Solanum lycopersicum)); experiment: DNA pull-down; purified SlGASA1-HIS incubated overnight with 1.0 μg biotin-labeled ACS2 or ACO1 promoter probe and GST or GST-FUL1 in HKMG buffer (100 mM KCl, 10 mM HEPES, 5 mM MgCl2, 1 mM DTT, 10% glycerol, 0.5% NP-40, pH 7.9); streptavidin-agarose beads; immunoblot with anti-GST and anti-HIS; both purified

Molecule: FRUITFULL1 fused to the GAL4 activation domain (tomato (Solanum lycopersicum))
binding [1]: binds

Molecule: NON-RIPENING fused to the GAL4 activation domain (tomato (Solanum lycopersicum))
binding [1]: no binding

B1: SlGASA1-HA (protein, UniProt P27057 26-112)
chain: NIMRDEQQQQQRNNQLYGVSEGRLHPQDCQPKCTYRCSKTSYKKPCMFFCQKCCAKCLCVPAGTYGNKQSCPCYNNWKTKRGGPKCP
binding [2]: binds

Continued, values first:

binding [1]: no binding
Molecule: APETALA2a fused to the GAL4 activation domain (tomato (Solanum lycopersicum))

binding [1]: no binding
Molecule: RIPENING INHIBITOR fused to the GAL4 activation domain (tomato (Solanum lycopersicum))

binding [3]: binds
B2: SlGASA1-HIS (protein, UniProt P27057 26-112)
chain: B1 chain

Reference: article PMC9832878
